Measurements as given in US20230322924A1.
Results are given in words; binding and its absence hold for the method and conditions named. Some results given as binding are weak or reduced against the parent protein; the word gives no strength.

Protein sequences, listed by entry. Tags and fused reporters are not part of them. Lines headed by an entry give the natural chain unless they say otherwise; changes in a name come on top. Residues count along the entry.
UniProt Q04609: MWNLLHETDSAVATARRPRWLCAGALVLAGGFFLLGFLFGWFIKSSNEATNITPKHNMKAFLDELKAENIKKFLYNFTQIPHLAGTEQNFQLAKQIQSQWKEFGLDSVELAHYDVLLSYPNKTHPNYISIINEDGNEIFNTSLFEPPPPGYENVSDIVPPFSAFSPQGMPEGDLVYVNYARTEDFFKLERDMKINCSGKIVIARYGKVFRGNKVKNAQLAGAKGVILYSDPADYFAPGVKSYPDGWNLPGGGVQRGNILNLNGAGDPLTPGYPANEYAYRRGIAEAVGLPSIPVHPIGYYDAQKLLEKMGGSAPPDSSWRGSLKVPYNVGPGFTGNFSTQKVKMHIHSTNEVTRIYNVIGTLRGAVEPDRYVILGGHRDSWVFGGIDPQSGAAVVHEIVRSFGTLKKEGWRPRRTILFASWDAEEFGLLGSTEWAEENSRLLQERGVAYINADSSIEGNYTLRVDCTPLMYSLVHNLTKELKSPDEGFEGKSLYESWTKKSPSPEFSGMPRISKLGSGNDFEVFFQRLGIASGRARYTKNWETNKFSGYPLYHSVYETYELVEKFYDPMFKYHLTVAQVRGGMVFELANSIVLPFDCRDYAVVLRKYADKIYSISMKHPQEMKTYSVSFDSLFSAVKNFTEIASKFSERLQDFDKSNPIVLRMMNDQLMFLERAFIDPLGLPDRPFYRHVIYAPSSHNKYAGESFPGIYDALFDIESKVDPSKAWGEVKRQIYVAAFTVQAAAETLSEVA
UniProt P20138: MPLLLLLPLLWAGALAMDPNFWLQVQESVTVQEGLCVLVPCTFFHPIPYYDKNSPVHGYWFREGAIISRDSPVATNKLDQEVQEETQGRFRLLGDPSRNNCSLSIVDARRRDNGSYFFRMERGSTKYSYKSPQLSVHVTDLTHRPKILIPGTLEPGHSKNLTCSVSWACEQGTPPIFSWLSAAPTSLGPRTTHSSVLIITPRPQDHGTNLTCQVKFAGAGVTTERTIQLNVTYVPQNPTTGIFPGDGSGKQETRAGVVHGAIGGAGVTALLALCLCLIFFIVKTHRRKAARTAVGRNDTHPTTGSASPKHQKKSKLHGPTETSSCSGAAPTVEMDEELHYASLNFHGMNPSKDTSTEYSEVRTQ
UniProt P07766: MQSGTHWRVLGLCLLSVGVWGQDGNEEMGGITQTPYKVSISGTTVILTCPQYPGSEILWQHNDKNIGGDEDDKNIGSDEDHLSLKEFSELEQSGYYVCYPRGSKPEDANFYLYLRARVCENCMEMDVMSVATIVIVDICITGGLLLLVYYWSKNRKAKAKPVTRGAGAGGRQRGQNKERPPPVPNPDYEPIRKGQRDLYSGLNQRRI
UniProt Q95LI5, residues 22-198: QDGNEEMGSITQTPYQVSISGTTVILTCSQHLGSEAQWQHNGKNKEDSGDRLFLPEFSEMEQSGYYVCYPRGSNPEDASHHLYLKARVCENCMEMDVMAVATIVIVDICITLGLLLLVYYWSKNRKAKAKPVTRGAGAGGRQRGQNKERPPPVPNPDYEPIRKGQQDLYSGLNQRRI

Columns and labels:
[1] = molecular target: chimpanzee PSMA on HEK cells (chimpanzee) (UniProt H2Q3K5); assay: flow cytometry, Fab supernatant titration
[2] = molecular target: human PSMA on cells (LNCaP) (human) (UniProt Q04609); assay: flow cytometry, Fab supernatant titration
[3] = molecular target: human PSMA on cells (LNCaP) (human) (UniProt Q04609); assay: flow cytometry, mammalian Fab supernatant on LNCaP cells, anti-human kappa-RPE
[4] = molecular target: chimpanzee PSMA on HEK cells (chimpanzee) (UniProt H2Q3K5); assay: flow cytometry, mammalian Fab supernatant on chimp-PSMA HEK cells (PSMG9), anti-human kappa-RPE
[5] = molecular target: chimpanzee PSMA on HEK cells (chimpanzee) (UniProt H2Q3K5); assay: flow cytometry, mammalian Fab supernatant
[6] = molecular target: human CD33, full length, on cells (human) (UniProt P20138); assay: flow cytometry on CD33 expressing HEK293F cells
[7] = molecular target: human CD3 on human T cells (human) (UniProt P07766); assay: flow cytometry on primary human T cells
[8] = molecular target: cynomolgus CD3 on cynomolgus T cells (cynomolgus) (UniProt Q95LI5); assay: cynomolgus T cells, plate-coated antibody, CD69 read-out
[9] = molecular target: human CD3 on human T cells (human) (UniProt P07766); assay: flow cytometry, primary human T cells [upper left panel]
[10] = molecular target: human CD3 on human T cells (human) (UniProt P07766); assay: competition with AF488 SP34-2 on human T cells, flow cytometry
[11] = molecular target: human CD3 on human T cells (human) (UniProt P07766); assay: flow cytometry competition on purified human T cells; competitor 2 ug/mL AF488-labelled SP34-2
[12] = molecular target: human CD3 on human T cells (human) (UniProt P07766); assay: flow cytometry competition on primary human T cells; competitor AlexaFluor 488 SP34-2 [left panel]
[13] = molecular target: cynomolgus CD3 on cynomolgus T cells (cynomolgus) (UniProt Q95LI5); assay: flow cytometry, purified cynomolgus CD3+ T lymphocytes, AF647 secondary antibody
[14] = molecular target: human CD3 on human T cells (human) (UniProt P07766); assay: flow cytometry, purified human CD3+ T lymphocytes, AF647 secondary antibody

Measured: binding

B1: PSMM110 (Fab, V domains shown)
VH: QVQLVQSGAEVKKPGSSVKVSCKASGGTFSSYAISWVRQAPGQGLEWMGWISPYNGNANYAQKFQGRVTITADESTSTAYMELSSLRSEDTAVYYCARVNSAALVWERLDYWGQGTLVTVSS
VL: DIQMTQSPSSLSASVGDRVTITCRASQSIDRWLNWYQQKPGKAPKLLIYAASSLQSGVPSRFSGSGSGTDFTLTISSLQPEDFATYYCQQSPRYPLTFGQGTKVEIK
binds: [1] | [2] | [3] | [4]

B2: PSMM52 (Fab, V domains shown)
VH: QVQLVQSGAEVKKPGSSVKVSCKASGGTFSSYAISWVRQAPGQGLEWMGWIIPYNGNANYAQKFQGRVTITADESTSTAYMELSSLRSEDTAVYYCARVNSAALVWERLDYWGQGTLVTVSS
VL: DIQMTQSPSSLSASVGDRVTITCRASQSIDRWLNWYQQKPGKAPKLLIYAASSLQSGVPSRFSGSGSGTDFTLTISSLQPEDFATYYCQQSPRYPLTFGQGTKVEIK
binds: [5] | [1] | [4]

B3: C33B915 (antibody, V domains shown)
VH: EVQLVESGGGLVQPGRSLRLSCAASGFTFDDYAMHWVRQVPGEGLEWVSGISWNGGDMVYADSVKGRFTISRDNAKNSLYLQMNSLRPEDTALYYCVKDMPYFDFLTGSDYYYYGMDVWGQGTTVTVSS
VL: SYELTQPPSVSVSPGQTASITCSGDNLGNEHVCWYHQKPGQSPVLVIYQNNKRPSGIPERFSGSNSGNTATLSISGTQATDEADYYCQAWDSTTAVFGGGTKLTVL
binds: [6]

B4: PSMM56 (Fab, V domains shown)
VH: EVQLVQSGAEVKKPGESLKISCKGSGYSFTSYWIGWVRQMPGKGLEWMGIIYPGDSDTRYSPSFQGQVTISADKSISTAYLQWSSLKASDTAMYYCARGLPIWYLDYWGQGTLVTVSS
VL: EIVLTQSPATLSLSPGERATLSCRASQSVASDLAWYQQKPGQAPRLLIYFASNRATGIPARFSGSGSGTDFTLTISSLEPEDFAVYYCQQSITWPFTFGQGTKVEIK
binds: [5] | [1] | [4]

B5: BLW-2B4 (antibody, V domains shown)
VH: QVQLQQSGPGLVKPSQTLSLTCAISGDSVFNNNAAWSWIRQSPSRGLEWLGRTYYRSKWLYDYAVSVKSRITVNPDTSRNQFTLQLNSVTPEDTALYYCVRGYSSSFDYWGQGTLVTVSS
VL: QSALTQPASVSGSPGQSITISCTGTSRDIGTYKFVSWYQQHPDKAPKVLLYEVNKRPSGVSSRFSGSKSGNTASLTISGLQAEDQADYHCCSYAGSGTLLFGGGTKLTVL
binds: [7] | [8] | [9] | [10] | [11] | [12]

B6: BLX-2E9 (antibody, V domains shown)
VH: QVQLQQSGPGLVKPSQTLSLTCAISGDSVFNNNGAWSWIRQSPSRGLEWLGRTYYRSKWLYDYAVSVKSRITVNPDTSRNQFTLQLNSVTPEDTALYYCARGYSSSFDYWGQGTLVTVSS
VL: QSALTQPASVSGSPGQSITISCTGTSSNIGTYKFVSWYQQHPDKAPKVLLYEVSKRPSGVSSRFSGSKSGNTASLTISGLQAEDQADYHCCSYAGSGTLLFGGGTKLTVL
binds: [8] | [13]

B7: BLX-1F8 (antibody, V domains shown)
VH: QVQLQQSGPGLVKPSQTLSLTCAISGDSVFNNNAAWSWIRQSPSRGLEWLGRTYYRSKWLYDYAVSVKSRITVNPDTSRNQFTLQLKSVTPEDTALYYCSRGYSSSFDYWGQGTLVTVSS
VL: QSALTQPASVSGSPGQSITISCTGTSSDIGTYKFVSWYQQHPDKAPKVLLYEVSKRPSGVSSRFSGSKSDNTASLTISGLQAEDQADYHCCSYAGSGTLLFGGGTKLTVL
binds: [7] | [9] | [10] | [11] | [12]

B8: BLX-3G8 (antibody, V domains shown)
VH: QVQLQQSGPGLVKPSQTLSLTCAISGDSVFNNNAAWTWIRQSPSRGLEWLGRTYYRSKWLYDYAVSVKSRITVNPDTSRNQFTLQLKSVTPEDTALYYCSRGYSSSFDYWGQGTLVTVSS
VL: QSALTQPASVSGSPGQSITISCTGTSSNIGTYKFVSWYQQHPDKAPKVLLYEVSKRPSGVSSRFSGSKSGNTASLTISGLQAEDQADYHCCSYAGSGTLLFGGGTKLTVL
binds: [7] | [8] | [9] | [10] | [14] | [13] | [11] | [12]

B9: BLX-3F4 (antibody, V domains shown)
VH: QVRLQQSGPGLVKPSQTLSLTCAISGDSVFNNNAAWSWIRQSPSRGLEWLGRTYYRSKWLYDYAVTVKSRITVNPDTSRNQFTLQLTSVTPEDTALYYCARGYSSSFDYWGQGTLVTVSS
VL: QSALTQPASVSGSPGQSITISCTGTSSNIGTYKFVSWYQQHPDKAPKVLLYEVSKRPSGVSSRFSGSKSGNTASLTISGLQAEDQADYHCCSYAGSGTLLFGGGTKLTVL
binds: [8]

B10: BLW-3B4 (antibody, V domains shown)
VH: QVQLQQSGPGLVKPSQTLSLTCAISGDSVFNNNAAWSWIRQSPSRGLEWLGRTYYRSKWLYDYAVSVKSRITVNPDTSRNQFTLQLNSVTPEDTALYYCVRGYSSSFDYWGQGTLVTVSS
VL: QSALTQPASVSGSPGQSITISCTGTSRDIGTYKFVSWYQQHPDKAPKVLLYEVSKRPSGVSSRFSGSKSGNTASLTISGLQAEDQADYHCCSYAGSGTLLFGGGTKLTVL
binds: [7] | [8] | [9] | [10] | [14] | [13] | [11] | [12]

B11: C33B914 (antibody, V domains shown)
VH: QVQLVESGGGVVQPGRSLRLSCAASGFTFSYYGMHWVRQAPDKGLEWVAVIWFDGNNKYYADSVKGRFTISRDNSKNTLYLQMNSLRAEDTAVYYCARDRELLFDYWGQGTLVTVSS
VL: SYELTQPPSVSVSPGQTASITCSGDELGDMYACWYQQKPGQSPLVVIYQDSKRPSGIPERFSGSNSGNTATLTISGTQAMDEAAYYCQTWDTRIAVFGGGTNLTVL
binds: [6]

B12: C33B916 (antibody, V domains shown)
VH: QVQLVESGGGVVQPGRSLRLSCATSGFTFSNYGMHWVRQAPGKGLEWVAVIWYVGSHKYYADSVKGRFTISRDNSKNTLYLQMNSLRAEDTAVYYCARDGSLCFDYWGQGTLVTVSS
VL: SYELTQPPSVSVSPGQTANISCSGVTLGYNYAYWYQQKPGQSPILVISQDTQRPSGIPERFSGSNSGNTATLTISGTQAMDEAAYYCQAWDITTVLFGGGTKLTVL
binds: [6]
